Data published in patent US20090042987A1, “TREATMENT OF NEUROPATHIC PAIN” (priority 2007, published 2009).
Some results were stated once for a whole list of compounds, not compound by compound.

Test system: STZ-diabetic rats
Assay: von Frey paw withdrawal thresholds, STZ-diabetic rats given multiple dosing regimens (washout protocol), Example 1
Format: in vivo, rat
Details: tranilast 300 mg/kg oral, 7th twice-daily dose
Method: Experimental Animals Ethical approval for this study was obtained from the Animal Experimentation Ethics Committee of The University of Queensland. Adult male Sprague-Dawley (SD) rats (222±4 g) were used for this study. Rats were housed in a temperature controlled room (21+2.0 C) with a 12/12 hour light/dark cycle. Food and water were available ad libitum. Initiation of drug administration occurred at 8-11 weeks post-STZ administration for rats in Experiment 1 (PCT-001) and at 10-12 weeks post-STZ administration for rats in Experiment 2 (PCT-007).
Test Article Tranilast was supplied by the Sponsor and stored at −4° C. until use. Gabapentin (100 mg/kg, dissolved in water for injection) was utilized as the positive control for this study. […]
Induction of STZ-Diabetes in Rats. […] Rats were housed singly prior to further experimentation and were monitored daily from the time of STZ administration with regard to general health and well-being. […]
Restoring von-Frey PWTs in the hindpaws from <6 g to pre-STZ surgery levels (12±2 g) is the treatment goal representing full reversal of tactile allodynia. […] Before administration of STZ, baseline von Frey measurements were assessed. Following STZ administration, baseline PWTs were assessed in the hindpaws at week 8-11 to confirm the development of diabetes-induced tactile allodynia. […]

`COc1ccc(/C=C/C(=O)Nc2ccccc2C(=O)O)cc1OC` [Tranilast, 2-[[3-(3,4-dimethoxyphenyl)-1-oxo-2-propenyl]amino]benzoic acid] showed a Duration of action of over 3 h.
